Each number is a percent effect as filed. The record does not define 0% and 100%; most values in the screen are far below 50% and negative numbers occur (in some assays of this library far below -100). This is an unselected part of the compounds tested.

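Whole-parasite assay of Trypanosoma brucei over 72 hours; the read-out is not stated. Tested at 30 µM. Direction is inferred from retests: higher values go with stronger inhibition. Values scatter widely below zero; nearly all retest evidence comes from the higher of the two concentrations used. Of about 64,000 compounds tested this way, about 940 (1.5%) reached 50% or more in at least one test.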

| # | structure | effect |
|---|---|---|
| 1 | `CCOc1ccc(OCc2nc3c(c(=O)[nH]2)CCNC3)cc1` | -1.417 |
| 2 | `Cc1ccc(OCC(=O)NCc2ccccc2F)nc1` | -6.351 |
| 3 | `CC(C)c1ncc2c(n1)CN(Cc1cccc3c1OCCO3)CC2` | 65.77 |
| 4 | `CCS(=O)(=O)N1CCCC(Cc2cnccn2)C1` (stereo not drawn) | -26.51 |
| 5 | `CC(C1CC1)N(C)Cc1nnc(-c2ccc(Br)s2)o1` (stereo not drawn) | -38.76 |
| 6 | `COc1ccc(-c2ccccc2CN)c(OC)c1` | -56.26 |
| 7 | `Cc1cnc2c(c1NCc1ccc(F)cc1)c(=O)n(C)c(=O)n2C` | -25.89 |
| 8 | `COc1ccccc1CC(=O)NCCCN1CCCC1C(=O)N(C)C` (stereo not drawn) | -79.59 |
| 9 | `CCCOCC(=O)N1CCCN(Cc2csc(CC)n2)CC1` | -21.1 |
| 10 | `CSc1ccccc1NC(=O)C1CN(C(=O)c2ccc3c(c2)OCO3)C1` | 10.08 |
| 11 | `O=C(O)C(F)(F)F.[H][C@@]12OCCN(CCOCc3ccccc3)[C@@]1([H])CC[C@@H]2OC` | -21.29 |
| 12 | `CCCn1nc2c(cc1=O)CN(CC(=O)Nc1cc(C)no1)CC2` | -21.16 |
| 13 | `O=C(O)C(F)(F)F.[H][C@@]12C[C@@H](c3nc(C)no3)CN(Cc3cc(C)c(C)o3)[C@]1([H])CCO2` | -0.2577 |
| 14 | `CCCS(=O)(=O)N1CCC2(CCC(=O)N(Cc3ccccc3)C2)CC1` | -16.36 |
| 15 | `CN1CCN(c2ncnc3c2c(C(=O)NC2CC2)c2ccccn23)CC1` | -4.33 |
| 16 | `CCn1c(CN2CCC(O)(C(=O)OC)CC2)nc2c(F)cccc21` | -28.37 |
| 17 | `O=C(c1c2c(N3CCOCC3)ncnc2n2ccccc12)N1CCCC1` | -10.54 |
| 18 | `CN(CCO)Cc1cc(Cl)ccc1OCC(O)CN1CCCCCC1` (stereo not drawn) | -51 |
| 19 | `O[C@@H]1C[C@@H](c2nc(Cc3ccccc3)no2)N(Cc2ncc[nH]2)C1` | -40.38 |
| 20 | `CCOc1ccccc1C(CC(=O)Nc1ccccc1)NC(C)=O` (stereo not drawn) | -29.65 |
| 21 | `Cc1ccoc1C(=O)N1CC(C(=O)N2CCOCC2)C2(CCOCC2)C1` (stereo not drawn) | -83.41 |
| 22 | `COc1nc2ccn(CCNc3cc(C)ccn3)c(=O)c2cc1C#N` | 7.792 |
| 23 | `COCCCS(=O)(=O)N(Cc1cccc(C)c1)Cc1ccccn1` | 22.01 |
| 24 | `COc1ccc(NC(=O)N2CCCC(CO)C2)c(C)c1` (stereo not drawn) | -6.956 |
| 25 | `Cc1ccc(C2CCCN2S(=O)(=O)N(C)Cc2cnccn2)o1` (stereo not drawn) | -21.71 |
| 26 | `O=C(O)C(F)(F)F.O=C(O)C(F)(F)F.[H][C@@]12CN(CC3CCOC3)C[C@]1([H])CN(c1ncccn1)C2` (stereo partly drawn) | -0.7694 |
| 27 | `CCCn1c(N2CCCCC2)nc2c(C)nn(C)c2c1=O` | -27.42 |
| 28 | `CCNc1cc2c(nn1)CCN(C(=O)c1cccc(CSC)c1)C2` | 10.34 |
| 29 | `CC1c2ncc(CN3CCN(C)CC3)n2CCN1Cc1ccccn1.O=C(O)C(F)(F)F.O=C(O)C(F)(F)F.O=C(O)C(F)(F)F.O=C(O)C(F)(F)F` (stereo not drawn) | -62.86 |
| 30 | `[H][C@@]12CN(Cc3cccnc3)C[C@]1([H])C(=O)NC21CCN(C(=O)C(C)C)CC1` | -20.9 |
| 31 | `Cc1noc(C)c1C(=O)N1CCCCC1c1cc(C)n2ccnc2n1` (stereo not drawn) | -2.956 |
| 32 | `O=C(Cn1cccnc1=O)NCCc1ccc2c(c1)OCCO2` | -8.571 |
| 33 | `Cc1nc(C2CCCN(C(=O)c3cccc(S(C)(=O)=O)c3)C2)no1` (stereo not drawn) | 3.008 |
| 34 | `[H][C@@]12CCN(C(=O)c3cccc(F)c3)[C@]1([H])CN(C(=O)c1ccsc1)C2` | -23.63 |
| 35 | `Cc1nc(C)c(CNC(=O)NC2CC(C)(C)OC2(C)C)s1` (stereo not drawn) | -113.6 |
| 36 | `CC1CCCN(Cc2c(C3CC3)[nH]c3ncccc23)C1` (stereo not drawn) | 0.4024 |
| 37 | `[H][C@@]12CCN(C(=O)c3cscn3)[C@]1([H])CN(C(=O)NC1CC1)C2` | -40.03 |
| 38 | `Cc1nc(CN2CCCC(CCc3c(F)cccc3F)C2)c[nH]1` (stereo not drawn) | 77.03 |
| 39 | `[H][C@]12CC(COCC(=O)N(C)C)C[C@]1([H])N(Cc1ccco1)CCO2` (stereo partly drawn) | -35.01 |
| 40 | `CN(C1CCCCC1)S(=O)(=O)NCC1Cc2ccccc2O1` (stereo not drawn) | -30.55 |
| 41 | `CC[C@@H]1N(Cc2ccsc2)CCC[C@]12CCC(=O)N2CCOC.O=C(O)C(F)(F)F` | -1.515 |
| 42 | `CNC(=O)c1cccc(CCNC(=O)N2CCc3ccccc3C2)c1` | -15.11 |
| 43 | `Cc1cnc(NC2CCN(CC(=O)Nc3ccccc3)CC2)nc1C` | -24.17 |
| 44 | `Cc1noc(C)c1CN1CCC2(CC1)CC(Oc1cccnc1)CO2.O=C(O)C(F)(F)F` (stereo not drawn) | -87.98 |
| 45 | `COCCn1ccnc1CN1CCc2[nH]cnc2C1c1ccccn1` (stereo not drawn) | -7.404 |
| 46 | `COCCN1CCCC2(CCC(=O)N2Cc2cccnc2)C1.O=C(O)C(F)(F)F` (stereo not drawn) | -4.67 |
| 47 | `Fc1cccc(CN2CCC3(CCN3c3ncccn3)C2)c1.O=C(O)C(F)(F)F` (stereo not drawn) | -29.27 |
| 48 | `O=C(O)C(F)(F)F.[H][C@@]12CCN(CCc3ccccc3)C[C@@]1([H])[C@H](C(=O)NC)CCO2` | -4.687 |
| 49 | `CCC(CC)C(CNC(=O)Nc1ccc(OC)cc1)N1CCOCC1` (stereo not drawn) | -4.151 |
| 50 | `Cc1nc(O)c2nnn(C[C@H]3CCCN3C(=O)c3ccc(F)cc3)c2n1` | -0.5174 |
| 51 | `Cc1nn(CC(=O)N2CCN(c3ccncc3)CC2)c(C)c1Cl` | 18.42 |
| 52 | `CCc1cnc(CN(C)C(=O)NC2CCN(c3ccccc3)C2)s1` (stereo not drawn) | -117.2 |
| 53 | `COC1CCN(C(=O)NCC(N)=O)CC(=O)N(C)c2ccccc21` (stereo not drawn) | -24.74 |
| 54 | `O=C(NCCNc1ncccn1)N1CCSCC1` | 6.266 |
| 55 | `Cc1ncc2c(c1CNC(=O)C1(C)CC1)CCNC2` | 11.21 |
| 56 | `CCCOCC1CCN(C(=O)c2cnc(C)nc2O)C1` (stereo not drawn) | 24.29 |
| 57 | `CCC(CC)c1cc(CNC(=O)N2CCCN(C(C)=O)CC2)on1` | 5.491 |
| 58 | `O=C(NCC1CC[C@@]2(CNCCOC2)O1)c1cccnc1` (stereo partly drawn) | -46.02 |
| 59 | `Cc1ccc(NC2CCN(C(=O)c3n[nH]c4ccccc34)CC2)nn1` | -9.866 |
| 60 | `Cc1cccc(-c2ccc(C(=O)NCC3CCCOC3)c(=O)[nH]2)c1` (stereo not drawn) | -2.074 |
| 61 | `O=C(c1cc(C2CC2)[nH]n1)N1CCN(Cc2ccc(Cl)cc2)CC1` | -5.784 |
| 62 | `CCc1nnc(SC2CCN(c3ccccc3F)C2=O)n1C` (stereo not drawn) | -23.18 |
| 63 | `O=C(NC1CCCCC1)c1ccc(Oc2ccc3nncn3n2)cc1` | -4.481 |
| 64 | `Cc1nccn1-c1cc(CNC(=O)c2ccccn2)ccn1` | -45.65 |

Some entries from above, unchanged:

* Cc1cnc(NC2CCN(CC(=O)Nc3ccccc3)CC2)nc1C | -24.17%
* CC(C)c1ncc2c(n1)CN(Cc1cccc3c1OCCO3)CC2 | 65.77%
* Cc1noc(C)c1CN1CCC2(CC1)CC(Oc1cccnc1)CO2.O=C(O)C(F)(F)F (stereo not drawn) | -87.98%
* COCCCS(=O)(=O)N(Cc1cccc(C)c1)Cc1ccccn1 | 22.01%
* CCCn1nc2c(cc1=O)CN(CC(=O)Nc1cc(C)no1)CC2 | -21.16%

Data taken from ChEMBL document CHEMBL3988442, “University of Dundee, Small-Polar-MMV Screening Library” (2021).